Experimental data as given in US20060008512A1, “Composition and methods for improved animal performance” (priority 2004, published 2006).

Legend:
young rats = conditions: cited from earlier work
[1] = test system: Hy-Line W-36 White Leghorn hens
Description: Experiment 3. […] The photoperiod serves as the primary environmental signal that regulates reproductive function in many avian species. Increasing the photoperiod promotes maturation of the gonads and reproductive tract, whereas reducing the photoperiod causes the gonads and reproductive tract to regress and molting to occur.

[2] = test system: Hy-Line W-36 White Leghorn hens; conditions: for Feed Intake: day 22 to day 28
Method: Experiment 1. […] While acknowledging that injecting individual hens is commercially impractical (Webster, 2003), nevertheless an initial study was needed to establish the efficacy of T4 when it is delivered directly into the hens in precisely measured doses. The photoperiod was 17 hours of light per day (0330 hours to 2030 hours).

[3] = test system: Hy-Line W-36 White Leghorn hens; remark: listed apart in the source
Method: Experiment 2. […] The photoperiod was 17 hours of light per day (0330 hours to 2030 hours).
The objective was to use T4 to humanely induce molting in hens that are continuously provided with ad libitum access to palatable feed meeting or exceeding all National Research Council (1994) standards. Developing a fully efficacious yet affordable molting protocol was predicated on determining the minimum effective level for T4 supplementation. Factors that potentially may affect the required level of T4 supplementation include: (1) uncertainty regarding the efficiency of T4 absorption by the gastrointestinal tract, (2) the possibility that continuous dietary ingestion of T4 could trigger substantially different biological responses when compared single daily injections, and (3) the likelihood that daily T4 intake would diminish in parallel with molt-related reductions in feed intake associated with cessation in egg production. A spontaneous and voluntary loss of appetite (anorexia) commonly accompanies seasonal molting and broodiness in a variety of avian species (Berry, 2003; Webster, 2003). Accordingly, the responses of hens to diets containing 10, 20, and 40 mg T4/kg, to bracket the anticipated range of T4 needed to cause an effective molt, were determined.

[4] = 20 mg/kg of feed 12 d from day 13, 8 hr light, Day 30-34
[5] = 20 mg/kg of feed 12 d from day 13, 8 hr light, Days 13-15
[6] = 20 mg/kg of feed 12 d from day 13, 8 hr light, Days 16-22
[7] = 20 mg/kg of feed 12 d from day 13, 17 hr light, Day 30-34
[8] = 20 mg/kg of feed 12 d from day 13, 17 hr light, Days 13-15
[9] = 20 mg/kg of feed 12 d from day 13, 17 hr light, Days 16-22
[10] = 40 mg/kg of feed 12 d from day 13, 8 hr light, Day 30-34
[11] = 40 mg/kg of feed 12 d from day 13, 8 hr light, Days 13-15
[12] = 40 mg/kg of feed 12 d from day 13, 8 hr light, Days 16-22
[13] = 40 mg/kg of feed 12 d from day 13, 17 hr light, Day 30-34
[14] = 40 mg/kg of feed 12 d from day 13, 17 hr light, Days 13-15
[15] = 40 mg/kg of feed 12 d from day 13, 17 hr light, Days 16-22
[16] = 10 mg/kg of feed 6 d from day 5, Day 11-14
[17] = 10 mg/kg of feed 6 d from day 5, Days 5-7
[18] = 10 mg/kg of feed 6 d from day 5, Days 8-10
[19] = 10 mg/kg of feed 10 d from day 5, Day 11-14
[20] = 10 mg/kg of feed 10 d from day 5, Days 5-7
[21] = 10 mg/kg of feed 10 d from day 5, Days 8-10
[22] = 20 mg/kg of feed 6 d from day 5, Day 11-14
[23] = 20 mg/kg of feed 6 d from day 5, Days 5-7
[24] = 20 mg/kg of feed 6 d from day 5, Days 8-10
[25] = 20 mg/kg of feed 10 d from day 5, Day 11-14
[26] = 20 mg/kg of feed 10 d from day 5, Days 5-7
[27] = 20 mg/kg of feed 10 d from day 5, Days 8-10
[28] = 40 mg/kg of feed 6 d from day 5, Day 11-14
[29] = 40 mg/kg of feed 6 d from day 5, Days 5-7
[30] = 40 mg/kg of feed 6 d from day 5, Days 8-10
[31] = 40 mg/kg of feed 10 d from day 5, Day 11-14
[32] = 40 mg/kg of feed 10 d from day 5, Days 5-7
[33] = 40 mg/kg of feed 10 d from day 5, Days 8-10

N[C@@H](Cc1cc(I)c(Oc2cc(I)c(O)c(I)c2)c(I)c1)C(=O)O [L-thyroxine, 3,5,3′,5′-tetraiodo-L-thyronine]
Magnesium content of the blood serum (young rats; 2 mg L-thyroxine/kg diet, 200 mg magnesium/kg, fell from 1.87): 0.50 mg %
Serum magnesium (young rats; thyroxine diet with high magnesium (1,600 mg/kg)): 1.67 mg %
Feed consumption (FC) [1, 4]: 82.5 g/hen/d
Feed consumption change from days 1-12 (% FCC) [1, 4]: −32.0%
Feed consumption (FC) ([1]; 20 mg/kg of feed 12 d from day 13, 8 hr light, Days 1-12): 121.3 g/hen/d
Feed consumption (FC) [1, 5]: 41.8 g/hen/d
Feed consumption change from days 1-12 (% FCC) [1, 5]: −65.5%
Feed consumption (FC) [1, 6]: 44.5 g/hen/d
Feed consumption change from days 1-12 (% FCC) [1, 6]: −63.3%
Feed consumption (FC) [1, 7]: 135.0 g/hen/d
Feed consumption change from days 1-12 (% FCC) [1, 7]: 11.1%
Feed consumption (FC) ([1]; 20 mg/kg of feed 12 d from day 13, 17 hr light, Days 1-12): 121.5 g/hen/d
Feed consumption (FC) [1, 8]: 58.0 g/hen/d
Feed consumption change from days 1-12 (% FCC) [1, 8]: −52.3%
Feed consumption (FC) [1, 9]: 51.8 g/hen/d
Feed consumption change from days 1-12 (% FCC) [1, 9]: −57.4%
Feed consumption (FC) [1, 10]: 104.8 g/hen/d
Feed consumption change from days 1-12 (% FCC) [1, 10]: −9.5%
Feed consumption (FC) ([1]; 40 mg/kg of feed 12 d from day 13, 8 hr light, Days 1-12): 115.8 g/hen/d
Feed consumption (FC) [1, 11]: 36.8 g/hen/d
Feed consumption change from days 1-12 (% FCC) [1, 11]: −68.2%
Feed consumption (FC) [1, 12]: 35.3 g/hen/d
Feed consumption change from days 1-12 (% FCC) [1, 12]: −69.5%
Feed consumption (FC) [1, 13]: 93.3 g/hen/d
Feed consumption change from days 1-12 (% FCC) [1, 13]: −9.7%
Feed consumption (FC) ([1]; 40 mg/kg of feed 12 d from day 13, 17 hr light, Days 1-12): 103.3 g/hen/d
Feed consumption (FC) [1, 14]: 42.0 g/hen/d
Feed consumption change from days 1-12 (% FCC) [1, 14]: −59.3%
Feed consumption (FC) [1, 15]: 37.5 g/hen/d
Feed consumption change from days 1-12 (% FCC) [1, 15]: −63.7%
Feed Intake ([2]; 250 mcg/kg body wt i.m. 12 d): 58.7 g/hen/day
Feed Intake ([2]; 500 mcg/kg body wt i.m. 8 d): 52.3 g/hen/day
Feed Intake ([2]; 1,000 mcg/kg body wt i.m. 8 d): 31.4 g/hen/day
Feed Intake ([2]; 2,000 mcg/kg body wt i.m. 3 d): 20.2 g/hen/day
Feed Intake ([2]; 4,000 mcg/kg body wt i.m. 3 d): 11.7 g/hen/day
Feed intake compared with Saline-injected controls ([2]; hens injected with ≧500 μg T4): significantly lower
Feed consumption (FC) [3, 16]: 81.3 g/hen/d
Feed consumption change from days 2-4 (% FCC) [3, 16]: −19.7%
Feed consumption (FC) ([3]; 10 mg/kg of feed 6 d from day 5, Days 2-4): 101.3 g/hen/d
Feed consumption (FC) [3, 17]: 60.0 g/hen/d
Feed consumption change from days 2-4 (% FCC) [3, 17]: −40.8%
Feed consumption (FC) [3, 18]: 35.3 g/hen/d
Feed consumption change from days 2-4 (% FCC) [3, 18]: −65.2%
Feed consumption (FC) [3, 19]: 47.3 g/hen/d
Feed consumption change from days 2-4 (% FCC) [3, 19]: −43.7%
Feed consumption (FC) ([3]; 10 mg/kg of feed 10 d from day 5, Days 2-4): 84.0 g/hen/d
Feed consumption (FC) [3, 20]: 56.0 g/hen/d
Feed consumption change from days 2-4 (% FCC) [3, 20]: −33.3%
Feed consumption (FC) [3, 21]: 33.7 g/hen/d
Feed consumption change from days 2-4 (% FCC) [3, 21]: −59.9%
Feed consumption (FC) [3, 22]: 73.7 g/hen/d
Feed consumption change from days 2-4 (% FCC) [3, 22]: −28.4%
Feed consumption (FC) ([3]; 20 mg/kg of feed 6 d from day 5, Days 2-4): 103.0 g/hen/d
Feed consumption (FC) [3, 23]: 42.0 g/hen/d
Feed consumption change from days 2-4 (% FCC) [3, 23]: −59.2%
Feed consumption (FC) [3, 24]: 33.7 g/hen/d
Feed consumption change from days 2-4 (% FCC) [3, 24]: −67.3%
Feed consumption (FC) [3, 25]: 32.7 g/hen/d
Feed consumption change from days 2-4 (% FCC) [3, 25]: −72.9%
Feed consumption (FC) ([3]; 20 mg/kg of feed 10 d from day 5, Days 2-4): 120.7 g/hen/d
Feed consumption (FC) [3, 26]: 54.7 g/hen/d
Feed consumption change from days 2-4 (% FCC) [3, 26]: −54.7%
Feed consumption (FC) [3, 27]: 30.0 g/hen/d
Feed consumption change from days 2-4 (% FCC) [3, 27]: −75.1%
Reduction of feed intake ([3]; 40 mg T4/kg test diet for 10 days): approximately 85%
Feed consumption (FC) [3, 28]: 46.7 g/hen/d
Feed consumption change from days 2-4 (% FCC) [3, 28]: −52.5%
Feed consumption (FC) ([3]; 40 mg/kg of feed 6 d from day 5, Days 2-4): 98.3 g/hen/d
Feed consumption (FC) [3, 29]: 36.7 g/hen/d
Feed consumption change from days 2-4 (% FCC) [3, 29]: −62.7%
Feed consumption (FC) [3, 30]: 13.7 g/hen/d
Feed consumption change from days 2-4 (% FCC) [3, 30]: −86.1%
Feed consumption (FC) [3, 31]: 19.3 g/hen/d
Feed consumption change from days 2-4 (% FCC) [3, 31]: −83.4%
Feed consumption (FC) ([3]; 40 mg/kg of feed 10 d from day 5, Days 2-4): 116.3 g/hen/d
Feed consumption (FC) [3, 32]: 37.3 g/hen/d
Feed consumption change from days 2-4 (% FCC) [3, 32]: −67.9%
Feed consumption (FC) [3, 33]: 22.0 g/hen/d
Feed consumption change from days 2-4 (% FCC) [3, 33]: −81.1%

Read-outs that look alike come from different tables or passages of the source.
